Numbering of substitutions follows the chain as printed. These are yes or no findings as the source states them, for the method shown. A result given as binding can be weak or reduced; the word gives no strength.
B1: Bos1 151-221 wild type (SNARE domain) (domain or fragment, Saccharomyces cerevisiae, UniProt P25385 151-221, looked up)
chain: LYQGLQKEQSVFERGNAQLDYILEMGQQSFENIVEQNKILSKVQDRMSNGLRTLGVSEQTITSINKRVFKD
notes: Bos1, Saccharomyces cerevisiae, SNARE domain, residues 151-221; Forms homo-oligomers of unstated size as the isolated SNARE domain; also called Bos1 wt; wild-type Bos1; source: E. coli BL21 (DE3), purified (Ni2+-NTA, ion exchange)
B2: Bos1 151-221 p.Gly176Asp (domain or fragment, Saccharomyces cerevisiae, UniProt P25385 151-221, looked up)
chain: B1 chain with G26D
notes: Bos1, Saccharomyces cerevisiae, SNARE domain, residues 151-221, with the designed Gly176Asp mutation; also called Bos1 p.Gly176Asp; source: E. coli BL21 (DE3), purified (Ni2+-NTA, ion exchange)
B3: Bos1 151-221 p.Gly176Trp (domain or fragment, Saccharomyces cerevisiae, UniProt P25385 151-221, looked up)
chain: B1 chain with G26W
notes: Bos1, Saccharomyces cerevisiae, SNARE domain, residues 151-221, with Gly176Trp (orthologous to GOSR2 p.Gly144Trp); also called Bos1 p.Gly176Trp; source: E. coli BL21 (DE3), purified (Ni2+-NTA, ion exchange)
B4: Bos1 151-221 p.Arg196del (domain or fragment, Saccharomyces cerevisiae, UniProt P25385 151-221, looked up)
chain: LYQGLQKEQSVFERGNAQLDYILEMGQQSFENIVEQNKILSKVQDMSNGLRTLGVSEQTITSINKRVFKD
notes: Bos1, Saccharomyces cerevisiae, SNARE domain, residues 151-221, with arginine 196 deleted (orthologous to GOSR2 p.Lys164del); also called Bos1 p.Arg196del; source: E. coli BL21 (DE3), purified (Ni2+-NTA, ion exchange)

The binders below were run against Sec22 126-186 (SNARE domain) (yeast) (assay: SEC; quaternary SNARE complexes assembled from equal amounts of purified Sed5 (211-320), Bet1 (1-118), Sec22 (126-186) and one Bos1 (151-221) variant, incubated overnight; Superdex 75, PBS with 200 mM NaCl; both purified).

Row | binding | Binder
1 | binds | B1
2 | binds | B2
3 | binds | B3
4 | binds | B4

Reference: article PMC5769602, “Functional assays for the assessment of the pathogenicity of variants of GOSR2, an ER-to-Golgi SNARE involved in progressive myoclonus epilepsies” (Disease Models & Mechanisms, 2017)
